This is one part of the list.

By UniProt entry, the sequences of proteins in these tests, tags left out. Where a name states a change or a piece, a line headed by the entry shows the natural chain unless it says otherwise.
UniProt P28065: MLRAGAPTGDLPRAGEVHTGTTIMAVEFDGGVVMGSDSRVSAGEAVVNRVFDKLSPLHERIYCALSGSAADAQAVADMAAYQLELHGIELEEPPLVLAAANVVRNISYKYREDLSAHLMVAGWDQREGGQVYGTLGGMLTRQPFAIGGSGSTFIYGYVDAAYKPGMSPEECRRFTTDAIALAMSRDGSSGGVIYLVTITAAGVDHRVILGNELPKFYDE
UniProt Q9P2B2: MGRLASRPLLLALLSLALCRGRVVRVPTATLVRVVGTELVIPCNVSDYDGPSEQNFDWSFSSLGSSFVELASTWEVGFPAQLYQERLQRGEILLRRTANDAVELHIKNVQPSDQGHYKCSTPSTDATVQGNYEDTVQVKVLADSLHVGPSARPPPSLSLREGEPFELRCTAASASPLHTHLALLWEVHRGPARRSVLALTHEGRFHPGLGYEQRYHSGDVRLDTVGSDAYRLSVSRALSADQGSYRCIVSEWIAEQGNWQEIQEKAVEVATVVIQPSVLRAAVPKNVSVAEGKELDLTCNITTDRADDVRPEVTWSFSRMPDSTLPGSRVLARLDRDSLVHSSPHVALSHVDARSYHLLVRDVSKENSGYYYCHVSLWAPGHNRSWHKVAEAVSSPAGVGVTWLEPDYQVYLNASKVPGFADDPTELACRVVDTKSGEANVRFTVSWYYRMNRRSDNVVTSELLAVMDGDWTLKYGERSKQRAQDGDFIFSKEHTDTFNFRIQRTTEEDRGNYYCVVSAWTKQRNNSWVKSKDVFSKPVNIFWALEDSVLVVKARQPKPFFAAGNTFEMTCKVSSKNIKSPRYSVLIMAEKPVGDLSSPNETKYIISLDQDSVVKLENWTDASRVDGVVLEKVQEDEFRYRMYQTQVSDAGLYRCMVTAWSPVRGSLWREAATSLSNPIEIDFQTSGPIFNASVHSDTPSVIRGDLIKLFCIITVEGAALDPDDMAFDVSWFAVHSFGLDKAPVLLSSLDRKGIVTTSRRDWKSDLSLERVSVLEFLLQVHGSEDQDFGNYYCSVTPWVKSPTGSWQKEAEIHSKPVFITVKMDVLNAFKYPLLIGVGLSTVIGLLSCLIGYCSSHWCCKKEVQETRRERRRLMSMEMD
UniProt Q6GMV3: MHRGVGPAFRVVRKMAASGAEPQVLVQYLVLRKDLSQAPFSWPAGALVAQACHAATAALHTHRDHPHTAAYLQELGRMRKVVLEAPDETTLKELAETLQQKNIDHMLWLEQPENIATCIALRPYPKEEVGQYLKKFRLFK
UniProt P06454: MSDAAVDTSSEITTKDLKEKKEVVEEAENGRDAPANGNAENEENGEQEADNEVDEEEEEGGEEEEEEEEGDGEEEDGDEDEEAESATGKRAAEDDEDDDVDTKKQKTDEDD
UniProt Q9Y617: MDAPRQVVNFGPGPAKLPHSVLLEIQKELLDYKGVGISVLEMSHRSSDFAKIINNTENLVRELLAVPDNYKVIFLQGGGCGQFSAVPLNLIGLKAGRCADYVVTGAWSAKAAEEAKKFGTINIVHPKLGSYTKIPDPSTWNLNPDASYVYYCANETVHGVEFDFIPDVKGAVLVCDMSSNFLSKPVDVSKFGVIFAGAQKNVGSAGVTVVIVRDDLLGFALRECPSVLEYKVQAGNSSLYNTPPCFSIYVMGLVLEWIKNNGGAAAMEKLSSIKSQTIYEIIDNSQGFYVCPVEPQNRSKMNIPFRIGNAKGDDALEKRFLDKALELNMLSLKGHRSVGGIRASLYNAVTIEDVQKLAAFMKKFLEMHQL
UniProt Q15257: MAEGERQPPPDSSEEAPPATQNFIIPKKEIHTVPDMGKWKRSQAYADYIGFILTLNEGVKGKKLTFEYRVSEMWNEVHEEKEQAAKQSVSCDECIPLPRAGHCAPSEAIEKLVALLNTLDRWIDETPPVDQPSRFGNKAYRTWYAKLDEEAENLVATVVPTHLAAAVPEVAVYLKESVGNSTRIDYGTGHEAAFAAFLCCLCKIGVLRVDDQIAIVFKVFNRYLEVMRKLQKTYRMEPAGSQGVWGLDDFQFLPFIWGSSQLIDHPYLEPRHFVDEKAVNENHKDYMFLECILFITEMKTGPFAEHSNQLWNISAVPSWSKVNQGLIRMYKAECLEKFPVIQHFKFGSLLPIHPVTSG
UniProt Q9UHX1: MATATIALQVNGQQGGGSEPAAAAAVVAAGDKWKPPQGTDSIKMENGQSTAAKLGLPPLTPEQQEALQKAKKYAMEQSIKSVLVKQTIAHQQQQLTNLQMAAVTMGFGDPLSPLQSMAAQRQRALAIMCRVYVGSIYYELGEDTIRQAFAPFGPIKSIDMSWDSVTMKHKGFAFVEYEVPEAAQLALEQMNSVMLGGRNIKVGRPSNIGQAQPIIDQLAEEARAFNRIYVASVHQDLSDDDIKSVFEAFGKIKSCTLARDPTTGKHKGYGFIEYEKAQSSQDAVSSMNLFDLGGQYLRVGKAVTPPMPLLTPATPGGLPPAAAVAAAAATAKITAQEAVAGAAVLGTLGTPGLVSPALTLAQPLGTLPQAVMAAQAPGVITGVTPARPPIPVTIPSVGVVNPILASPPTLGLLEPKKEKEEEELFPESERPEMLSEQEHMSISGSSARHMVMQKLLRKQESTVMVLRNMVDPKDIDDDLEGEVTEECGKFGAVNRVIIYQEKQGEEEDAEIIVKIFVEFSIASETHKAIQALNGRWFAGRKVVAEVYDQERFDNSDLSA
UniProt Q14671: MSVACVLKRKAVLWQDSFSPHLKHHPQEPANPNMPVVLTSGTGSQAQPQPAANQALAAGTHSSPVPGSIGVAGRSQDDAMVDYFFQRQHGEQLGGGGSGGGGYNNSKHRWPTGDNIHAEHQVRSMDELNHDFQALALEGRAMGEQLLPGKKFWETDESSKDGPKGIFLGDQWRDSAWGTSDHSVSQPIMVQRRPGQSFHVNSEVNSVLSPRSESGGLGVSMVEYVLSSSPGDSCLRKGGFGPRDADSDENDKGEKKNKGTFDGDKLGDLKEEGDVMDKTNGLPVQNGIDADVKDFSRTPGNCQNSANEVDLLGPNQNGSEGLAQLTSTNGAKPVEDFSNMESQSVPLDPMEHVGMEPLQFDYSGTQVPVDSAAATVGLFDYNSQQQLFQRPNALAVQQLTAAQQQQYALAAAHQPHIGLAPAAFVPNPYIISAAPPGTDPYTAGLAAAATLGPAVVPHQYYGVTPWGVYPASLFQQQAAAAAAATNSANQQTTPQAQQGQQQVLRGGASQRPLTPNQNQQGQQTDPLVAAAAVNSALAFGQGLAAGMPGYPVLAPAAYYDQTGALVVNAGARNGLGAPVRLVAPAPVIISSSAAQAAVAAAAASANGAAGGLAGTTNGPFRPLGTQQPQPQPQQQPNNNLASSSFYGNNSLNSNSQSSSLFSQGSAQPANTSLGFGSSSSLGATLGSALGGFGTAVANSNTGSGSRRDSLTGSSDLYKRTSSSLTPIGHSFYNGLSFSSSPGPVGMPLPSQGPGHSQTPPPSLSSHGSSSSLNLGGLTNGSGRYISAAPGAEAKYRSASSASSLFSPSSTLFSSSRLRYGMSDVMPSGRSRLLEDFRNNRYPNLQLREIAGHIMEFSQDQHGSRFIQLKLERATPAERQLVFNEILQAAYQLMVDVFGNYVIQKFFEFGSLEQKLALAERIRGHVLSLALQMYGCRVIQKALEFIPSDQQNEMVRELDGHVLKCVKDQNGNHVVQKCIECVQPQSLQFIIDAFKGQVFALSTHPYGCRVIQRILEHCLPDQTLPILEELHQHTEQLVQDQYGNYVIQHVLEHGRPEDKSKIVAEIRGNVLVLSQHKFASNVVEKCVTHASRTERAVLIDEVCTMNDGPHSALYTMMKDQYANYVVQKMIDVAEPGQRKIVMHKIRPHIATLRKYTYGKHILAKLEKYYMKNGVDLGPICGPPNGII
UniProt Q92530: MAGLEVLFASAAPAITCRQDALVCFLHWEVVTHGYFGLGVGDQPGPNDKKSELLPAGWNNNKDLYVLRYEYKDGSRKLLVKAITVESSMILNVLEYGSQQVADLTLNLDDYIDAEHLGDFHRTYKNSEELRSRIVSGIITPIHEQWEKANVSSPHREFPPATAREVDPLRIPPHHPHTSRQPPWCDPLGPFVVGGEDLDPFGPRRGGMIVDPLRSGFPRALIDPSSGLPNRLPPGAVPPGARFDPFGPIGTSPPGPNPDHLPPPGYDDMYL
UniProt Q9BZE2: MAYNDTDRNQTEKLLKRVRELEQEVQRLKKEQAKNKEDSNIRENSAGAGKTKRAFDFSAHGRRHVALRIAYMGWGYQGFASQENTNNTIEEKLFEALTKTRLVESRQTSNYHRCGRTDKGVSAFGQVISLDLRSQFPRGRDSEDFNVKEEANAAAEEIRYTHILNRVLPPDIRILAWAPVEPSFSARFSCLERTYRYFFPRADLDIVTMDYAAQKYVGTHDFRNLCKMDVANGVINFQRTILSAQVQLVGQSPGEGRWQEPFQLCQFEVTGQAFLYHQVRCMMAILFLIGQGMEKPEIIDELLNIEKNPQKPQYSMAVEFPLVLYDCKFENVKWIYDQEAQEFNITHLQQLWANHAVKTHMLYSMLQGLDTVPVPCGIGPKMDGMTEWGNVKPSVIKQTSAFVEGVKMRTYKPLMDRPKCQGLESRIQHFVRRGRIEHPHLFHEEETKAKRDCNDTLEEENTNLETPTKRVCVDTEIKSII
UniProt Q06323: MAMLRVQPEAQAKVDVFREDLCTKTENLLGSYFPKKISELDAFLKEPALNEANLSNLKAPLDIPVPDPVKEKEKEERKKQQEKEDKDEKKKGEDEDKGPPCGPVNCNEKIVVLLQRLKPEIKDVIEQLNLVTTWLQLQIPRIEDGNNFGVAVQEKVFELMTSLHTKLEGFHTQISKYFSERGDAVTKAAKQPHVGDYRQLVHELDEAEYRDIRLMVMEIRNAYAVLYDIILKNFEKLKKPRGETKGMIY
UniProt P43378: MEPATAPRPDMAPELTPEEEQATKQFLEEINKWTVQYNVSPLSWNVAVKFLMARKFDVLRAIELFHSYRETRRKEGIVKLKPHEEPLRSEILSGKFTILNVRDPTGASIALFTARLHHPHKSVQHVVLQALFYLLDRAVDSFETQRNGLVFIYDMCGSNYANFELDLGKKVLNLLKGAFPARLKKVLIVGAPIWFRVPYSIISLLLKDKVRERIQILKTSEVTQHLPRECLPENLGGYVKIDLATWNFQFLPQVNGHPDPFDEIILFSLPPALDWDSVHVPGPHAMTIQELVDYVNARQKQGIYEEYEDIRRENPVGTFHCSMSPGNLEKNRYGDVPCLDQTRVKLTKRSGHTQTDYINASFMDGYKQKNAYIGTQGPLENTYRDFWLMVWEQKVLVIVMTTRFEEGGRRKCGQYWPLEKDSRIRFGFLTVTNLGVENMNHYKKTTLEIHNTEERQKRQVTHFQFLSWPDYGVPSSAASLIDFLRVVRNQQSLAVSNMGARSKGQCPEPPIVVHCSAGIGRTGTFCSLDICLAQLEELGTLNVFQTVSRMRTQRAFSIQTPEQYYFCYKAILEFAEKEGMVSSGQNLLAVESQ
UniProt P20618: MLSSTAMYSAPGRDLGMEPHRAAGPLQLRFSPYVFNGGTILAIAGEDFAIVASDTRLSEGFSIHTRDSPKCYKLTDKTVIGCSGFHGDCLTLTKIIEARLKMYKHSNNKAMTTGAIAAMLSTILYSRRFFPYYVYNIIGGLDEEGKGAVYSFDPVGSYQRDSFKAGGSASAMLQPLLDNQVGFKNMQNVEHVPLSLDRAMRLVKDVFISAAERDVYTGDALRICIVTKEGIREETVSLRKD
UniProt Q9H939: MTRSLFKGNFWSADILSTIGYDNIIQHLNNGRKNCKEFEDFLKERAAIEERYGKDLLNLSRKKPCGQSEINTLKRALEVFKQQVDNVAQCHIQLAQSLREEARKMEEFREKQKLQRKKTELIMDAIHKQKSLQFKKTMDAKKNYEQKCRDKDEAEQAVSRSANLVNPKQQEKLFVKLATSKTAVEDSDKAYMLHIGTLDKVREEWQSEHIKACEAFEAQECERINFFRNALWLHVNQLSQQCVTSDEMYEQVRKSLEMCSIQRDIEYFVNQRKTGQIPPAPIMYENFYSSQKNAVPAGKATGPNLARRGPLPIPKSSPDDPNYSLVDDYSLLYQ
UniProt O75365, whole entry, looked up: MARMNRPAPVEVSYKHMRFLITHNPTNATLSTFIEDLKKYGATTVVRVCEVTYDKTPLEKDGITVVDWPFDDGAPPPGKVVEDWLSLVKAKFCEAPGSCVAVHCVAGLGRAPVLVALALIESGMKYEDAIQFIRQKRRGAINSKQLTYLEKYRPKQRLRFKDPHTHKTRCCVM
UniProt O60256: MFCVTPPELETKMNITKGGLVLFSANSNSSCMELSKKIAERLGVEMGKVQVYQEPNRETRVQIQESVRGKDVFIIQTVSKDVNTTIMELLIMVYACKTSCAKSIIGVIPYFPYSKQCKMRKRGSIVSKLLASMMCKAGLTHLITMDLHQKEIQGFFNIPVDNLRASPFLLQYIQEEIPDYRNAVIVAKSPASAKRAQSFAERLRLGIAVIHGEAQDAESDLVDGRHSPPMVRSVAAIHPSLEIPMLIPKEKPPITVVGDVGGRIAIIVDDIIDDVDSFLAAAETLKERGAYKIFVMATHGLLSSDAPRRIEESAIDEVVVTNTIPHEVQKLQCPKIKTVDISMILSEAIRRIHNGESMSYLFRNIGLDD

Compound in the first test: NCC(=O)Nc1ccc(-n2nc(C(F)(F)F)cc2-c2ccc3c(ccc4ccccc43)c2)cc1
Nature of the test: log2 fold change, soluble protein after heating vs DMSO (PISA); higher = thermal stabilisation; K562 lysate, 10 uM; active = over 0.2 and 3.5 SD of the protein, either way, in both replicates (recomputed). In outline: (§1)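 Thermal stability, expressed as log-two fold change relative to solvent controls, is given from duplicates. Crude K562 extract in PBS pH 7.4 with 1 mM MgCl2, at 1 mg/mL protein, was treated with 10 μM compound for 30 min and heated in aliquots for 3 min across 48°C-58°C. After pooling, adjustment to 0.5% NP-40 at 4°C and centrifugation at 21,000xg for 90 min, supernatant protein was measured by TMTpro 16plex LC-MS/MS with channel sums equalised.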
Turning to PSMB9 (UniProt P28065), the log2 fold change was inactive: 0.07.
As to PTGFRN (UniProt Q9P2B2), the log2 fold change was inactive: -0.008.
For the target PTRHD1 (UniProt Q6GMV3), the log2 fold change was inactive: 0.042.
The same measure, in the same setting: under PTMA (UniProt P06454) stands inactive: -0.002; under PSAT1 (UniProt Q9Y617), inactive: 0; under PTPA isoform 2 (UniProt Q15257), inactive: 0.032.
Still for that read-out and setting: as for PSMA3 (UniProt H0YJ03), the figure is inactive: 0.374; as for PUF60 isoform 2 (UniProt Q9UHX1), inactive: -0.061.
As for PSMD4 (UniProt Q5VWC4), the log2 fold change was inactive: 0.049.
In the case of PRUNE2 isoform 3 (UniProt Q8WUY3), the log2 fold change was inactive: 0.008.
Turning to PTMS (UniProt F5GXR3), the log2 fold change is inactive: -0.03.
On to PUM1 isoform 3 (UniProt Q14671), for which the log2 fold change is inactive: 0.027.
On the same count and under the same terms, under PUS1 (UniProt Q9Y606) stands inactive: 0.04.
As for PTPDC1 isoform 2 (UniProt A2A3K4), the log2 fold change was inactive: -0.527.
Still for that read-out and setting: as for PUS7L (UniProt Q9H0K6), the figure is inactive: 0.054; as for PSMF1 (UniProt Q92530), inactive: 0.032.
In the case of PUS3 (UniProt Q9BZE2), the log2 fold change was inactive: 0.051.
PSME1 (UniProt Q06323): the log2 fold change is inactive: -0.019.
On the same count and under the same terms, under PSMD6 isoform 4 (UniProt Q15008) stands inactive: 0.001; under PTPN9 (UniProt P43378), inactive: 0.082; under PSMB1 (UniProt P20618), inactive: 0.024.
For PSTPIP2 (UniProt Q9H939), the log2 fold change was inactive: 0.046.
Consider PTPN1 (UniProt P18031), for which the log2 fold change is inactive: -0.005.
Consider PTPA (UniProt Q5T948), for which the log2 fold change was inactive: -0.012.
Same read-out and setting: under PTP4A3 (UniProt O75365) stands inactive: -0.355; under PSIP1 (UniProt O75475), inactive: 0.046; under PRPSAP2 (UniProt O60256), inactive: 0.009.
Turning to PTPN23 (UniProt Q9H3S7), the log2 fold change was inactive: -0.011.
As to PTCD3 (UniProt Q96EY7), the log2 fold change was inactive: 0.026.
In the case of PSMD2 (UniProt Q13200), the log2 fold change was inactive: 0.021.
The same measure, in the same setting: as for PSMC3 (UniProt E9PLG2), the figure is inactive: 0.047; as for PUS7 isoform 2 (UniProt Q96PZ0), inactive: 0.023.

Compound in a further test: O=C(CCCCCCC(=O)Nc1ccccc1)NO [vorinostat]
Described as above. In short, it runs like this: as §1
On to PSMB9 (UniProt P28065), for which the log2 fold change is inactive: 0.057.
As for PTGFRN (UniProt Q9P2B2), the log2 fold change was inactive: 0.078.
PTRHD1 (UniProt Q6GMV3): the log2 fold change was inactive: 0.227.
On the same count and under the same terms, under PTMA (UniProt P06454) stands inactive: 0.093; under PSAT1 (UniProt Q9Y617), inactive: 0.137.
As to PTPA isoform 2 (UniProt Q15257), the log2 fold change is inactive: 0.151.
On to PSMA3 (UniProt H0YJ03), for which the log2 fold change is inactive: -0.056.
On the same count and under the same terms, under PUF60 isoform 2 (UniProt Q9UHX1) stands inactive: 0.23; under PSMD4 (UniProt Q5VWC4), inactive: 0.29; under PRUNE2 isoform 3 (UniProt Q8WUY3), inactive: 0.054.
On to PUM1 isoform 3 (UniProt Q14671), for which the log2 fold change was inactive: -0.192.
For the target PUS1 (UniProt Q9Y606), the log2 fold change was active: -0.321.
As to PTPDC1 isoform 2 (UniProt A2A3K4), the log2 fold change is inactive: 0.114.
On to PUS7L (UniProt Q9H0K6), for which the log2 fold change was inactive: -0.087.
For PSMF1 (UniProt Q92530), the log2 fold change is inactive: 0.067.
In the case of PUS3 (UniProt Q9BZE2), the log2 fold change is active: -0.527.
Turning to PSME1 (UniProt Q06323), the log2 fold change was inactive: -0.007.
Same read-out and setting: as for PSMD6 isoform 4 (UniProt Q15008), the figure is inactive: 0.075; as for PTPN9 (UniProt P43378), inactive: -0.177.
PSMB1 (UniProt P20618): the log2 fold change is inactive: 0.125.
As for PSTPIP2 (UniProt Q9H939), the log2 fold change is active: -0.312.
On to PTPN1 (UniProt P18031), for which the log2 fold change is active: -0.29.
Still for that read-out and setting: under PTP4A3 (UniProt O75365) stands inactive: -0.324; under PSIP1 (UniProt O75475), inactive: 0.097.
PRPSAP2 (UniProt O60256): the log2 fold change is inactive: -0.067.
On to PTPN23 (UniProt Q9H3S7), for which the log2 fold change was active: -0.266.
Still for that read-out and setting: as for PTCD3 (UniProt Q96EY7), the figure is inactive: -0.094; as for PSMD2 (UniProt Q13200), inactive: -0.004; as for PUS7 isoform 2 (UniProt Q96PZ0), inactive: 0.02.

Compound in another test: O=C(O)c1ccc2c(c1)nc(Nc1cccc(Cl)c1)c1ccncc12 [silmitasertib]
The description is as above. In outline: as §1
PSMB9 (UniProt P28065): the log2 fold change is inactive: 0.008.
Same read-out and setting: under PTGFRN (UniProt Q9P2B2) stands inactive: 0.
As for PTRHD1 (UniProt Q6GMV3), the log2 fold change is inactive: 0.022.
As to PTMA (UniProt P06454), the log2 fold change is inactive: -0.036.
As for PSAT1 (UniProt Q9Y617), the log2 fold change was inactive: 0.006.
Regarding PTPA isoform 2 (UniProt Q15257), the log2 fold change was inactive: 0.007.
On to PSMA3 (UniProt H0YJ03), for which the log2 fold change was inactive: -0.172.
The same measure, in the same setting: as for PUF60 isoform 2 (UniProt Q9UHX1), the figure is inactive: 0.075; as for PSMD4 (UniProt Q5VWC4), inactive: -0.001.
As for PRUNE2 isoform 3 (UniProt Q8WUY3), the log2 fold change was inactive: 0.004.
The same measure, in the same setting: under PUM1 isoform 3 (UniProt Q14671) stands inactive: 0; under PUS1 (UniProt Q9Y606), inactive: 0.041.
Turning to PTPDC1 isoform 2 (UniProt A2A3K4), the log2 fold change is inactive: 0.013.
Take PUS7L (UniProt Q9H0K6): the log2 fold change was inactive: -0.009.
For the target PSMF1 (UniProt Q92530), the log2 fold change is inactive: -0.043.
For PUS3 (UniProt Q9BZE2), the log2 fold change was inactive: 0.11.
For PSME1 (UniProt Q06323), the log2 fold change was inactive: 0.011.
PSMD6 isoform 4 (UniProt Q15008): the log2 fold change was inactive: -0.001.
Take PTPN9 (UniProt P43378): the log2 fold change was inactive: -0.092.
In the case of PSMB1 (UniProt P20618), the log2 fold change was inactive: -0.019.
Regarding PSTPIP2 (UniProt Q9H939), the log2 fold change is inactive: 0.04.
Regarding PTPN1 (UniProt P18031), the log2 fold change was inactive: 0.04.
With PTP4A3 (UniProt O75365), the log2 fold change was inactive: 0.17.
The same measure, in the same setting: under PSIP1 (UniProt O75475) stands inactive: -0.019.
Still for that read-out and setting: as for PRPSAP2 (UniProt O60256), the figure is inactive: 0.017; as for PTPN23 (UniProt Q9H3S7), inactive: -0.007.
With PTCD3 (UniProt Q96EY7), the log2 fold change is inactive: 0.039.
Still for that read-out and setting: as for PSMD2 (UniProt Q13200), the figure is inactive: 0.008.
For the target PUS7 isoform 2 (UniProt Q96PZ0), the log2 fold change is inactive: -0.019.
